# Percent effect of library compounds

Values are the deposited “Percent Effect”, in %. The record does not define 0% and 100%; most values in the screen are far below 50% and negative numbers occur (in some assays of this library far below -100). Compounds were drawn at random from those tested, without regard to their results.

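Phenotypic screen: M. tuberculosis growth, glucose 7H9 medium, 3 days; the read-out is not stated. Tested at 500 µM. The record gives no direction; compounds that gave an IC50 in retests scored well above the rest, so higher reads as more growth inhibition. About 18,000 compounds were tested under these conditions; 7.9% (about 1,400) showed 50% or more at least once.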

Compound	percent effect
COc1ccccc1N1CCC(N)C1 (centres unmarked)	81.65
NC1CCN(C(=O)c2cccnc2)C1 (centres unmarked)	6.813
O=C(Cc1c[nH]c2ncccc12)NCc1cccnc1	28.71
CCOC(=O)c1cnccc1N	-9.997
NC(=O)c1cccc(CSc2nnnn2C2CC2)c1	27.97
c1nc2c(c(N3CCOCC3)n1)CCC2	25.36
Cc1nc(C(=O)OCCn2cccn2)cs1	15.11
CN(C)C(=O)c1ccc(Oc2ncccn2)cc1	4.752
COc1ccc(NC(=O)N2CCCN(C)CC2)cc1F	62.04
CC(C)(C)OC(=O)N1CC(O)CC(F)(F)C1 (centres unmarked)	-8.438
CC1(C)CNC(CO)C1 (centres unmarked)	-13.96
CC(CS(C)(=O)=O)NC(=O)C(C)(C)C (centres unmarked)	9.18
O=C(c1ccc(Br)s1)N1CCN(c2ccccn2)CC1	-5.09
CCCS(=O)(=O)N1CCC(C(=O)NCCOC)CC1	-8.042
Cc1ccc(C(=O)N2CCC(=O)CC2)cc1	30.83
Cc1occc1C(=O)N1CCCC(CNS(C)(=O)=O)C1 (centres unmarked)	9.838
CCC(CNC(=O)c1c[nH]nn1)Oc1ccccc1F (centres unmarked)	32.99
CN(C)CCCNC1=NS(=O)(=O)c2ccccc21	9.288
OC(CN1CCn2ccnc2C1)c1ccc(F)cc1 (centres unmarked)	63.44
O=C1CCN(C2CCCc3ccc(F)cc32)CCN1 (centres unmarked)	39.12
O=C(Cn1cc(I)cn1)Nc1ccccn1	18.59
Clc1ccc(-c2noc(CN3CCCNCC3)n2)cc1	84.16
Cn1ccc2ccnc(N3CCC(C(N)=O)CC3)c21	-2.788
CNS(=O)(=O)c1ncccc1N	-0.04376
CCN(C)C(C)C(=O)Nc1cccc(S(N)(=O)=O)c1 (centres unmarked)	8.314
NC(=O)c1cccnc1-c1ccc(O)cc1	19.15
CC(C)(N)C(O)c1ccc(Br)cc1 (centres unmarked)	73.27
Cc1cccc(NCCC(=O)NC2CCCC2)n1	53.87
Cc1cc(C(=O)NCc2cccc(F)c2)no1	74.14
Cc1nnc(SCC(=O)NCCOc2nonc2C)s1	17.99
O=S1(=O)CCCN(CCSc2ccccc2)CC1	-0.9714
COCC(C)NC(=O)c1cncn1-c1ccc(F)cc1 (centres unmarked)	-2.565
N[C@@H]1CC[C@H](C(=O)NCc2csc(N3CCCC3)n2)C1	19.77
CC(C)c1ccc(O)c(C(=O)N2CCOCC2)c1	3.015
CC(C)(CNC(=O)c1[nH]c2ccccc2c1Cl)C(N)=O	-1.227
O=C(c1ccc(N2CCOCC2)c(F)c1)N1CCCC1	-0.3869
CCCNC(=O)c1csc(NC(C)=O)n1	10.43
CC(C(=O)N1CCCC1)N1CCNCC1 (centres unmarked)	5.525
CCOCCS(=O)(=O)Cc1cccc(OC)c1	39
OC1CN(Cc2ccccc2)C1	28.99
CN1C(=O)Cc2ccccc2C1C(=O)N1CCCC1 (centres unmarked)	-3.574
Cc1ccc(CN)c(OCC2CCOC2)c1 (centres unmarked)	27.89
CCN(CC)C(=O)c1ccccc1N(C)S(C)(=O)=O	11.41
CN(C)C(=O)N1CCN(CC(O)c2ccccc2)CC1 (centres unmarked)	23.63
CCN(CC)CCCNC(=O)c1ccccc1	-0.8262

4 of the entries, repeated:

Compound	percent effect
NC(=O)c1cccc(CSc2nnnn2C2CC2)c1	27.97
CN(C)C(=O)N1CCN(CC(O)c2ccccc2)CC1 (centres unmarked)	23.63
OC1CN(Cc2ccccc2)C1	28.99
CC(CS(C)(=O)=O)NC(=O)C(C)(C)C (centres unmarked)	9.18

From ChEMBL document CHEMBL3988442, “University of Dundee, Small-Polar-MMV Screening Library” (2021).